Our source for the AC50 values is PubChem BioAssay AID445 (National Center for Advancing Translational Sciences (NCATS), 2006).

The assay is described as follows: IkB Signaling. Conditions: ABC-DLBCL IkBa-CBG/CBR dual luciferase ratio (green luciferase fused to IkBa over red control in OCI-Ly3 lymphoma cells), 4 h. In short, it runs like this: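 Luminescence ratio of IκBα-fused green versus native red beetle luciferase in OCI-Ly3 cells, 4 h post-doxycycline with compound; red signal alone, scaled from basal (0%) to zero light (-100%), flagged nonspecific or cytotoxic effects.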
The mark [1] stands for this setting: measured here: control luc red channel unless noted.

This is one part of the list. Shown are side measurements of this screen, not its main read-out; they come without a call. Compounds called inactive in the main read-out are mostly missing here. Words in brackets tell the shape of the fitted curve; partial curves, single points and poor fits give uncertain potencies.

One may read the AC50 as the midpoint of the concentration-response curve, whichever way the signal moves. For `O=c1cc(-c2ccccc2)nc(N2CCN(Cc3ccc4c(c3)OCO4)CC2)[nH]1`, the AC50 under setting [1] was 12.6 µM [falling, partial curve].
With `O=C(c1ccc2c(c1)OCCO2)N(Cc1cccnc1)c1nc2c(F)cc(F)cc2s1`, under setting [1], the AC50 was 31.6 µM [falling, partial curve].
For `COc1cccc(CNS(=O)(=O)c2ccc(-c3cc(C(F)(F)F)on3)s2)c1`, the AC50 under setting [1] was 2 µM [falling, full curve].
For the compound `CCOC(=O)c1ccc(N2C(=O)Cc3cc(OCC)c(OCC)cc3C2c2ccccc2)cc1` (stereo not given), under setting [1], the AC50 is 31.6 µM [falling, single point].
Turning to `CCS(=O)(=O)Nc1ccc(-c2nnc(SCC(=O)OC)o2)cc1`, the AC50 under setting [1] is 5.01 µM [falling, partial curve].
Same read-out and setting: next, `O=C(OCC(=O)N1CCN(C(=O)c2ccco2)CC1)c1cc(-c2ccc(F)cc2)nc2ccccc12`: 7.94 µM [falling, partial curve]; `Cc1ccccc1-c1nc(SCC(=O)NCC2CCCO2)c2c(=O)n(C)c(=O)n(C)c2n1` (stereo not given): 31.6 µM [falling, single point]; `COCCNC(=O)c1ccc2c(=O)n(CCOC)c(SCC(=O)c3c[nH]c4ccccc34)nc2c1`: 15.8 µM [falling, partial curve].
Take `Cc1cccc(CCNC(=O)CCc2c(C)nc3ncnn3c2C)c1`: the AC50 under setting [1] was 20 µM [falling, partial curve].
In the case of `O=C(c1ccco1)N1CCN(CC(O)COc2ccc3oc4ccccc4c3c2)CC1` (stereo not given), under setting [1], the AC50 was 15.8 µM [falling, partial curve].
`OC(CN1CCN(c2ccccc2)CC1)c1c[nH]c2ccccc12` (stereo not given): under setting [1], the AC50 is 15.8 µM [falling, partial curve].
For `COc1ccc(-n2nnnc2SCC(=O)Nc2ccc3c(c2)OCCO3)c(OC)c1`, the AC50 under setting [1] was 31.6 µM [falling, partial curve].
On to `COc1ccc(S(=O)(=O)Nc2cc3c(cc2N2CCOCC2)n(C)c(=O)n3C)cc1`, for which, under setting [1], the AC50 is 15.8 µM [rising, partial curve].
On the same count and under the same terms, for `COc1cccc(NC(=O)c2ccc3[nH]c(C)cc(=O)c3c2)c1` the value was 39.8 µM [falling, single point].
For `COc1ccc2[nH]cc(CCNc3nc(-c4c(C)noc4C)nc4ccccc34)c2c1`, the AC50 under setting [1] is 3.98 µM [falling, partial curve] [measured here: IkB-luc green channel].
With `COC(=O)c1ccc(Cn2nc(-c3ccc(C)cc3)ccc2=O)cc1`, the AC50 under setting [1] is 20 µM [falling, single point].
For the compound `Cc1ccc(-n2c(SCC(=O)Nc3ccc4c(c3)OCCO4)nc3c([nH]c4ccccc43)c2=O)cc1`, the concentration at half-maximal activity (AC50) under setting [1] is 10 µM [rising, partial curve].
With `Cn1c(SCc2ccccc2)nnc1-c1cccs1`, under setting [1], the AC50 was 20 µM [falling, single point].
In the case of `C=CCN(CC=C)CC(O)Cn1c2ccccc2c2ccccc21` (stereo not given), under setting [1], the AC50 is 25.1 µM [falling, partial curve].
With `COCCNC(=O)c1ccc(-c2nc(CN3CCc4ccccc43)c(C)o2)cc1`, the AC50 under setting [1] is 39.8 µM [rising, partial curve].
For the compound `CCCCNC(=O)Cn1cnc2sc(C)c(S(=O)(=O)N3CCN(c4ccccc4OC)CC3)c2c1=O`, the AC50 under setting [1] was 0.0794 µM [falling, full curve, poor fit].
With `Cc1ccc(C)c2[nH]c(=O)c(CN(Cc3ccc4c(c3)OCO4)Cc3nnnn3Cc3ccco3)cc12`, under setting [1], the AC50 was 12.6 µM [falling, partial curve].
For the compound `CCOc1ccc2nc(NC(=O)c3ccccc3)sc2c1`, under setting [1], the AC50 is 0.2 µM [falling, full curve].
With `O=C(Cn1ncc2c3ccccc3n(Cc3ccccc3F)c2c1=O)NCCCc1ccccc1`, the AC50 under setting [1] was 39.8 µM [rising, single point].
Regarding `CC1=CCC(COC(=O)Nc2ccccc2)CC1` (stereo not given), under setting [1], the AC50 is 12.6 µM [falling, partial curve].
The same measure, in the same setting: next, `CCOc1ccccc1C(=O)N(Cc1ccco1)Cc1ccccc1F`: 12.6 µM [falling, partial curve]; `Cc1ccc(C(=O)Nc2ccc(Br)cc2)cc1S(=O)(=O)NCc1ccccc1`: 10 µM [falling, partial curve]; `COc1ccccc1Cn1c(SCC(=O)C(C)(C)C)nc2ccccc2c1=O`: 39.8 µM [falling, single point].
Turning to `CCOC(=O)c1c(C)oc2nc(C)nc(N3CCN(c4ccc(OC)cc4)CC3)c12`, under setting [1], the AC50 was 20 µM [falling, partial curve].
`CCNC(=O)C1CCN(Cc2cc3ccccc3n2Cc2ccc(C)cc2)CC1`: the AC50 under setting [1] is 39.8 µM [falling, single point].
Turning to `COC(=O)CN1C(C(=O)c2ccccc2)=C(OC(=O)c2ccc(C)cc2)c2ccccc2S1(=O)=O`, under setting [1], the AC50 was 20 µM [falling, single point].
Same read-out and setting: next, `Cc1nn(-c2ccccc2)c2nc(N)c(C#N)c(-c3ccc(F)cc3)c12`: 20 µM [falling, partial curve].
As for `COc1ccccc1-n1c(CNC(=O)COc2ccccc2)n[nH]c1=S`, the AC50 under setting [1] is 0.794 µM [falling, full curve].
With `Cc1oc(-c2cccc(Cl)c2)nc1CSCC(=O)NCc1ccccc1Cl`, the AC50 under setting [1] is 25.1 µM [falling, single point].
For the compound `COc1ccc(Cl)cc1C1CC(=O)Nc2cc3c(cc21)OCCO3` (stereo not given), the AC50 by setting is: (measured here: IkB-luc green channel) 3.16 µM [rising, partial curve]; (measured here: control luc red channel) 39.8 µM [falling, single point].
As for `CCc1cccc(NC(=O)Cn2ncc3c([nH]c4ccc(C)cc43)c2=O)c1`, the AC50 under setting [1] is 6.31 µM [rising, full curve].
On the same count and under the same terms, next, `CCOc1ccccc1NC(=O)CCc1c(C)nc2c3cccnc3nn2c1C`: 6.31 µM [falling, partial curve]; `O=C(NCc1ccc(F)cc1)c1ccc(CS(=O)(=O)Cc2ccccc2F)o1`: 20 µM [falling, partial curve]; `COc1ccc(C(=O)Nc2ccc(Cl)cn2)cc1Cl`: 20 µM [falling, single point].
Regarding `COc1cccc(C(=O)NCCc2csc(-c3cccc(F)c3)n2)c1OC`, under setting [1], the AC50 is 25.1 µM [falling, single point].
On to `CCc1cccc(NC(=O)CN(c2ccc(C)cc2)S(=O)(=O)c2cccs2)c1`, for which, under setting [1], the AC50 is 10 µM [falling, partial curve].
Regarding `Cc1csc(NC(=O)c2ccoc2C)n1`, the AC50 under setting [1] was 12.6 µM [falling, partial curve].
`COc1ccc(-c2nc3ccccc3s2)cc1NC(=O)COc1cccc(C)c1`: the AC50 under setting [1] is 0.398 µM [rising, single point].
Regarding `COc1c(C)cc(Br)cc1C(=O)Nc1cccc(-c2nc3ncccc3o2)c1`, under setting [1], the AC50 was 3.16 µM [falling, full curve, poor fit].
As to `O=C(Cn1c(=O)n(CCCS(=O)(=O)C2CCCCC2)c(=O)c2ccccc21)Nc1ccc(F)c(Cl)c1`, under setting [1], the AC50 was 6.31 µM [falling, partial curve].
Turning to `CC(C)(C)n1nnnc1C(c1cccs1)N(Cc1ccccc1)Cc1ccco1` (stereo not given), under setting [1], the AC50 was 25.1 µM [falling, partial curve].
`O=C(c1cnc(N2CCCCC2)c2ccccc12)N1CCN(c2cccc(Cl)c2)CC1`: the AC50 under setting [1] was 39.8 µM [falling, single point].
For `Cc1cc(C)cc(NC(=O)CCCn2c(=O)c3cccn3c3ccccc32)c1`, the AC50 under setting [1] was 31.6 µM [falling, single point].
On the same count and under the same terms, next, `O=C(COc1ccccc1[N+](=O)[O-])N1CCC(c2nc3ccccc3o2)CC1`: 20 µM [falling, single point]; `Cc1c(CC(=O)NCCc2ccccc2F)c(=O)oc2cc(O)c(Cl)cc12`: 31.6 µM [falling, single point]; `Cc1ccc(-n2ncc3c(N(CC(C)C)CC(C)C)ncnc32)c(C)c1`: 31.6 µM [falling, single point].
For `COC(=O)c1[nH]c2cccc(OC)c2c1NC(=O)CN1CC2(C)CC1CC(C)(C)C2` (stereo not given), under setting [1], the AC50 is 15.8 µM [falling, partial curve].
For the compound `O=C(CN1CCC(n2nnc3ccccc32)CC1)NCc1cccs1`, the AC50 under setting [1] is 12.6 µM [falling, partial curve].
The same measure, in the same setting: for `Cc1cccc(NS(=O)(=O)c2cc(C(=O)OCC(=O)Nc3cc(C)on3)ccc2C)c1` the value was 25.1 µM [falling, partial curve]; for `CC(C)S(=O)(=O)c1oc(-c2cccs2)nc1S(=O)(=O)c1ccc(F)cc1`, 3.16 µM [falling, partial curve]; for `CCN(CCCNC(=O)c1cc(Nc2ccc(OC)cc2OC)nc2ccccc12)c1cccc(C)c1`, 1.58 µM [falling, single point].
Regarding `CCOc1cccc(NC(=O)C2CC(=O)N(C)C(=Nc3ccc(F)cc3)S2)c1` (stereo not given), the AC50 under setting [1] is 25.1 µM [falling, partial curve].
With `O=C(CSc1nc2ccccc2[nH]1)Nc1ccc2c(c1)OCCO2`, the AC50 under setting [1] is 25.1 µM [falling, partial curve].
For the compound `CCOc1ccccc1NC(=O)CN1C(=O)COc2ccc(S(=O)(=O)N3CCCCC3)cc21`, the concentration at half-maximal activity (AC50) under setting [1] is 25.1 µM [falling, single point].
The same measure, in the same setting: for `O=C(c1ccc(Br)s1)N(Cc1cccnc1)c1nc2ccc(F)cc2s1` the value was 2.51 µM [falling, full curve].
With `CCN1C(=O)CC(C(=O)Nc2ccc(F)cc2)SC1=Nc1cccc(OC)c1` (stereo not given), the AC50 under setting [1] was 20 µM [falling, partial curve].
For the compound `Cn1cc(C(c2ccccc2)c2ccc(Cl)s2)c2ccccc21` (stereo not given), the AC50 under setting [1] was 25.1 µM [falling, single point].
`CCn1c(=O)n(CC(=O)N(C)Cc2ccccc2)c(=O)c2ccccc21`: under setting [1], the AC50 is 5.01 µM [falling, partial curve].
Consider `CCc1ccc2oc(-c3ccc(N)cc3)nc2c1`, for which the AC50 under setting [1] is 0.02 µM [falling, full curve].
